{"source": "paper PMC9887185", "binders": {"B1": {"name": "Arabidopsis AtLIP5 (LYST-… PROTEIN5), pAD-AtLIP5 prey (protein, UniProt Q9SZ15 1-421)", "chain": "MSNPNEPARALLPYLQRADELQKHEPLVAYYCRLYAMERGLKIPQSERTKTTNSILMSLINQLEKDKKSLTLSPDDNMHVEGFALSVFAKADKQDRAGRADLGTAKTFYAASIFFEILSQFGPVPPDIEQKHKYAAWKAADIRKAIKEGRKPTPGDPVDDDTDLSIPSSGPSGSYDHSASDTNTTSHHRTELDPPHDSNDDSSHHQFPEVPQHPLPPRFYDNPTNDYPADVPPPPPSSYPSNDHLPPPTGPSDSPYPHPYSHQPYHQDPPKHMPPPQNYSSHEPSPNSLPNFQSYPSFSESSLPSTSPHYPSHYQNPEPYYSSPHSAPAPSSTSFSSAPPPPPYSSNGRINIAPVLDPAPSSAQKYHYDSSYQPGPEKVAEALKAARFAVGALAFDEVSTAVEHLKKSLELLTNPSAGAGH"}}, "biological_target": "T1, Arabidopsis AtSKD1 (SUPPRESSOR OF K+ TRANSPORT GROWTH DEFECT1) ATPase, pBD-AtSKD1 bait (Arabidopsis thaliana) (UniProt Q9ZNT0)", "T1 sequence": "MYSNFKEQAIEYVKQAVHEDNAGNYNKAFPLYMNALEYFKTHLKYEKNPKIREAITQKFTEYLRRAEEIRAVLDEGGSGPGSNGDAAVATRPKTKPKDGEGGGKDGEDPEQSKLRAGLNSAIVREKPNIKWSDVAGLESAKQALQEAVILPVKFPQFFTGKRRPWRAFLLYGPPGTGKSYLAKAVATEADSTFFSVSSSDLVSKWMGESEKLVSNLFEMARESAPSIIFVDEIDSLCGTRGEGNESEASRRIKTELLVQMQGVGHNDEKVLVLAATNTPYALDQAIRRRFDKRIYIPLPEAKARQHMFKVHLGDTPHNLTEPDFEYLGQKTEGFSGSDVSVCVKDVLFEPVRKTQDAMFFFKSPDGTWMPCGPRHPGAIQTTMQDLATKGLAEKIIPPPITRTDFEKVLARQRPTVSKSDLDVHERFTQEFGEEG", "assay": "two-hybrid; yeast co-transformed with pBD-AtSKD1 bait and pAD prey constructs; LacZ reporter, beta-galactosidase activity with ONPG as substrate; empty pAD-Gal4 vector as negative control", "note": "Results are given in words; binding and its absence hold for the method and conditions named. Some binding calls cover weakened binding; strength is not graded here.", "data": [{"binder": "B1", "values": [{"measurement": "binding", "value": "binds"}]}]}
